Results are given in words; binding and its absence hold for the method and conditions named. Binding seen in cells or lysates may run through a third protein.

The chains behind the UniProt entries cited, without tags or fusion partners. Residues count along the entry.
UniProt P33527: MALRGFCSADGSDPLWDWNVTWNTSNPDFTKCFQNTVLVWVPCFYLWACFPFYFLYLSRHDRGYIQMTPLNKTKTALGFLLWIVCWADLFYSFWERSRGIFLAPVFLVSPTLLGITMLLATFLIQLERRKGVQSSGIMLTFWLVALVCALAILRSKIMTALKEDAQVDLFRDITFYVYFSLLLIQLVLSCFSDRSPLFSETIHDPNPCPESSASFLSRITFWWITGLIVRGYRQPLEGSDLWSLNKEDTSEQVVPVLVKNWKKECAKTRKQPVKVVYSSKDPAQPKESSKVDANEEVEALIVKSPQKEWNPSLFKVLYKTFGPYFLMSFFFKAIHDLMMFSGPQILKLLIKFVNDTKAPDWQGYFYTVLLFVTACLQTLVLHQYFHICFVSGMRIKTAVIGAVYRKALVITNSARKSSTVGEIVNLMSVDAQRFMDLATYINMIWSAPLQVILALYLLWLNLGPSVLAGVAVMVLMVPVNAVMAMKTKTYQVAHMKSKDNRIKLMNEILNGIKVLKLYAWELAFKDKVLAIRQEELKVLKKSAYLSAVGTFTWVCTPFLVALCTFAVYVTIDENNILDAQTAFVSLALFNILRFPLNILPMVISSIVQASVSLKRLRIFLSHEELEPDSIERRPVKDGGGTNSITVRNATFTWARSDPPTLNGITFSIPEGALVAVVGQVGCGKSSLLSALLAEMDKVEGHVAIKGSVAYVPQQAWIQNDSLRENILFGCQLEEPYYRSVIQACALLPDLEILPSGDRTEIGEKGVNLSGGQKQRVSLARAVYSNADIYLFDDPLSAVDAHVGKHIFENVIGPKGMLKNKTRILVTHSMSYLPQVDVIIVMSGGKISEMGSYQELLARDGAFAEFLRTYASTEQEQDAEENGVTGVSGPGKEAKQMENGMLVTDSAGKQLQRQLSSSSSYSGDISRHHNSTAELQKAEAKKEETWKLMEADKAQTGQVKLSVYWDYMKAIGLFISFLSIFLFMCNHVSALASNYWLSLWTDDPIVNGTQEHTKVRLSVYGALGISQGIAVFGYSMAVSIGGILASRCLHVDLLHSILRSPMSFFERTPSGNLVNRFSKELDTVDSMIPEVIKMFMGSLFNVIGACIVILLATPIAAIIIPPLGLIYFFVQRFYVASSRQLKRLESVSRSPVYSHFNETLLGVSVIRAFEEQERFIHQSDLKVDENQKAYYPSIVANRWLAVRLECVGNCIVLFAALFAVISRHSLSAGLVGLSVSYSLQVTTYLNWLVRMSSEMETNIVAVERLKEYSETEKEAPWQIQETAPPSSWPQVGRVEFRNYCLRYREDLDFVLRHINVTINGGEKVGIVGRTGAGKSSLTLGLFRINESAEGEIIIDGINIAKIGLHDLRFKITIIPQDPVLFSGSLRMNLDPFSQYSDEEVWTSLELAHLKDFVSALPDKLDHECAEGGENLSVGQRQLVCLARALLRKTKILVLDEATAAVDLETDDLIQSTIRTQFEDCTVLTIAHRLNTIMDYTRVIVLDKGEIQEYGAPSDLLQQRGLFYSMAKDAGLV
UniProt O43570, residues 25-354: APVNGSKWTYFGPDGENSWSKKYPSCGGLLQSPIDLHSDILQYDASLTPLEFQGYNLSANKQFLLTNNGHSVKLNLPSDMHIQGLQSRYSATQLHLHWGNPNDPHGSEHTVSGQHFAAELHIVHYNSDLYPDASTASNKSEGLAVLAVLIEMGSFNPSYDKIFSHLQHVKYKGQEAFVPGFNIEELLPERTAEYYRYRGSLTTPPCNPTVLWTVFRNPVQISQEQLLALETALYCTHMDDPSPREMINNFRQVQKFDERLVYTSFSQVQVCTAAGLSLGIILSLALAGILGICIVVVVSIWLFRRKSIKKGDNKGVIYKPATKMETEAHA

This experiment concerns the target multidrug resistance related protein 1 (human (endogenous in HT29/dx)) (UniProt P33527). Briefly: co-IP; biotinylated plasma membrane-derived extracts of HT29 and HT29/dx cells; 100 ug of proteins immunoprecipitated with anti-Pgp or anti-MRP1 antibodies on protein A and protein G magnetic beads; immunoblotted with anti-CAXII, anti-CAIX, anti-Pgp or anti-MRP1. Background: Immunoblotting shows a protein as a band on a membrane.

As for “carbonic anhydrase type XII (from UniProt O43570 25-354) (enzyme)”, the binding result is “no binding”.

For the origin of these results see article PMC4466649.
